Data taken from PubChem BioAssay AID190 (DTP/NCI, 2004).
The list does not hold the whole screen: it gathers some chemical classes. Not every dose and run of a compound is shown. T/C is the treated group as % of the vehicle group. For survival time, the PubChem record calls one and a half times the control and up active, and a quarter to a half above the control has no call in these data; cut-offs in other NCI protocols can differ. Some T/C values are marked as having no survivor count here; that says nothing about deaths at the dose. Schedules are NCI's codes, read here as Q, the interval in days (D) or hours (H), X, the number of doses. Some doses were run more than once; their values stand side by side, smallest first.

System: AKR/Lw mice, AKR lymphoma ip, median survival T/C
Assay: NCI In Vivo Anticancer Drug Screen. Data for tumor model Lymphoma AKR (Transplanted) (intraperitoneal) in AKR/Lw mice
Details: T/C endpoint: median survival time, higher T/C = longer survival
Procedure: The antitumor activity of compounds was measured in mice bearing transplantable tumors. Survival or tumor size were measured and the results are expressed as the measurement made in the treated group (T) divided by the measurement made in the vehicle treated control group (C). The tumor model used in this assay is Lymphoma AKR (Transplanted) (intraperitoneal) in AKR/Lw mice

Q: How did the T/C (dose: 0.02 mg/kg/injection, schedule: Q01DX009 (ip), vehicle: saline) turn out when `CN(CCCl)CCCl` was run?
A: 125 % of control [survivor count not shown]

Q: What about the T/C (dose: 0.05 mg/kg/injection, schedule: Q01DX001 (ip), vehicle: saline) of the same compound?
A: 102 % of control [survivor count not shown]

Q: What about the T/C (dose: 0.05 mg/kg/injection, schedule: Q04DX003 (ip), vehicle: saline) of the same compound?
A: 96 [survivor count not shown] and 102 % of control [survivor count not shown]

Q: And the T/C (dose: 0.06 mg/kg/injection, schedule: Q01DX001 (ip), vehicle: saline)?
A: 105 % of control [survivor count not shown]

Q: What about the T/C (dose: 0.1 mg/kg/injection, schedule: Q01DX001 (ip), vehicle: saline) of the same compound?
A: 119 % of control [survivor count not shown]

Q: And the T/C (dose: 0.1 mg/kg/injection, schedule: Q04DX003 (ip), vehicle: saline)?
A: 120 % of control [survivor count not shown]

Q: And the T/C (dose: 0.12 mg/kg/injection, schedule: Q01DX001 (ip), vehicle: saline)?
A: 91 [survivor count not shown], 100 [survivor count not shown], 107 [survivor count not shown], 116 % of control [survivor count not shown]

Q: And the T/C (dose: 0.2 mg/kg/injection, schedule: Q01DX001 (ip), vehicle: saline)?
A: 108 % of control [survivor count not shown]

Q: What about the T/C (dose: 0.2 mg/kg/injection, schedule: Q04DX003 (ip), vehicle: saline) of the same compound?
A: 114 % of control [survivor count not shown]

Q: And the T/C (dose: 0.25 mg/kg/injection, schedule: Q01DX001 (ip), vehicle: Klucel (hydroxypropylcellulose) (HPC))?
A: 102 % of control [survivor count not shown]

Q: And the T/C (dose: 0.25 mg/kg/injection, schedule: Q01DX001 (ip), vehicle: saline)?
A: 88 [survivor count not shown], 102 [survivor count not shown], 110 [survivor count not shown], 111 [survivor count not shown], 138 % of control [survivor count not shown]

Q: And the T/C (dose: 0.25 mg/kg/injection, schedule: Q01DX009 (ip), vehicle: saline)?
A: 105 [survivor count not shown] and 113 % of control [survivor count not shown]

Q: And the T/C (dose: 0.25 mg/kg/injection, schedule: Q04DX003 (ip), vehicle: saline)?
A: 92 [survivor count not shown], 100 [survivor count not shown], 109 [survivor count not shown], 146 % of control [survivor count not shown]

Q: And the T/C (dose: 0.35 mg/kg/injection, schedule: Q01DX001 (ip), vehicle: Klucel (hydroxypropylcellulose) (HPC))?
A: 105 % of control [survivor count not shown]

Q: What about the T/C (dose: 0.5 mg/kg/injection, schedule: Q01DX001 (ip), vehicle: Klucel (hydroxypropylcellulose) (HPC)) of the same compound?
A: 115 % of control [survivor count not shown]

Q: What about the T/C (dose: 0.5 mg/kg/injection, schedule: Q01DX001 (ip), vehicle: saline) of the same compound?
A: 88 [survivor count not shown], 100 [survivor count not shown], 104 [survivor count not shown], 107 [survivor count not shown], 118 [survivor count not shown], 130 % of control [survivor count not shown]

Q: What about the T/C (dose: 0.5 mg/kg/injection, schedule: Q01DX009 (ip), vehicle: saline) of the same compound?
A: 93 [survivor count not shown] and 147 % of control [survivor count not shown]

Q: And the T/C (dose: 0.5 mg/kg/injection, schedule: Q04DX003 (ip), vehicle: saline)?
A: 88 [survivor count not shown], 89 [survivor count not shown], 111 % of control [survivor count not shown]

Q: And the T/C (dose: 0.75 mg/kg/injection, schedule: Q01DX001 (ip), vehicle: Klucel (hydroxypropylcellulose) (HPC))?
A: 120 % of control [survivor count not shown]

Q: And the T/C (dose: 0.75 mg/kg/injection, schedule: Q01DX001 (ip), vehicle: saline)?
A: 116 % of control [survivor count not shown]

Q: And the T/C (dose: 1.0 mg/kg/injection, schedule: Q01DX001 (ip), vehicle: saline)?
A: 88 [survivor count not shown], 94 [survivor count not shown], 102 [survivor count not shown], 104 [survivor count not shown], 114 [survivor count not shown], 121 % of control [survivor count not shown]

Q: What about the T/C (dose: 1.0 mg/kg/injection, schedule: Q01DX009 (ip), vehicle: saline) of the same compound?
A: 93 [survivor count not shown] and 94 % of control [survivor count not shown]

Q: What about the T/C (dose: 1.0 mg/kg/injection, schedule: Q04DX003 (ip), vehicle: saline) of the same compound?
A: 86 [survivor count not shown] and 169 % of control [survivor count not shown]

Q: What about the T/C (dose: 1.5 mg/kg/injection, schedule: Q01DX001 (ip), vehicle: saline) of the same compound?
A: 113 [survivor count not shown] and 115 % of control [survivor count not shown]

Q: What about the T/C (dose: 2.0 mg/kg/injection, schedule: Q01DX001 (ip), vehicle: saline) of the same compound?
A: 100 [survivor count not shown], 112 [survivor count not shown], 117 % of control [survivor count not shown]

Q: What about the T/C (dose: 2.0 mg/kg/injection, schedule: Q04DX003 (ip), vehicle: saline) of the same compound?
A: 165 % of control [survivor count not shown]

Q: And the T/C (dose: 3.0 mg/kg/injection, schedule: Q01DX001 (ip), vehicle: saline)?
A: 111 [survivor count not shown] and 131 % of control [survivor count not shown]

Q: And the T/C (dose: 4.0 mg/kg/injection, schedule: Q01DX001 (ip), vehicle: saline)?
A: 95 [survivor count not shown] and 121 % of control [survivor count not shown]

Q: What about the T/C (dose: 0.1 micrograms/kg/injection, schedule: Q01DX009 (ip), vehicle: saline) of the same compound?
A: 105 % of control [survivor count not shown]

Q: What about the T/C (dose: 0.2 micrograms/kg/injection, schedule: Q01DX009 (ip), vehicle: saline) of the same compound?
A: 117 % of control [survivor count not shown]

Q: What about the T/C (dose: 0.5 micrograms/kg/injection, schedule: Q01DX009 (ip), vehicle: saline) of the same compound?
A: 92 % of control [survivor count not shown]

Q: And the T/C (dose: 2.5 micrograms/kg/injection, schedule: Q01DX009 (ip), vehicle: saline)?
A: 105 % of control [survivor count not shown]

Q: And the T/C (dose: 5.0 micrograms/kg/injection, schedule: Q01DX009 (ip), vehicle: saline)?
A: 91 % of control [survivor count not shown]

Q: And the T/C (dose: 6.0 micrograms/kg/injection, schedule: Q01DX009 (ip), vehicle: saline)?
A: 115 [survivor count not shown] and 121 % of control [survivor count not shown]

Q: And the T/C (dose: 10.0 micrograms/kg/injection, schedule: Q01DX009 (ip), vehicle: saline)?
A: 94 % of control [survivor count not shown]

Q: What about the T/C (dose: 12.0 micrograms/kg/injection, schedule: Q01DX009 (ip), vehicle: saline) of the same compound?
A: 103 [survivor count not shown], 105 [survivor count not shown], 123 % of control [survivor count not shown]

Q: And the T/C (dose: 12.5 micrograms/kg/injection, schedule: Q04DX003 (ip), vehicle: saline)?
A: 90 [survivor count not shown] and 97 % of control [survivor count not shown]

Q: And the T/C (dose: 25.0 micrograms/kg/injection, schedule: Q01DX009 (ip), vehicle: saline)?
A: 100 [survivor count not shown], 105 [survivor count not shown], 121 % of control [survivor count not shown]

Q: And the T/C (dose: 25.0 micrograms/kg/injection, schedule: Q04DX003 (ip), vehicle: saline)?
A: 87 [survivor count not shown], 103 [survivor count not shown], 107 % of control [survivor count not shown]

Q: And the T/C (dose: 50.0 micrograms/kg/injection, schedule: Q04DX003 (ip), vehicle: saline)?
A: 94 [survivor count not shown], 116 [survivor count not shown], 159 % of control [survivor count not shown]

Q: What about the T/C (dose: 100.0 micrograms/kg/injection, schedule: Q01DX009 (ip), vehicle: saline) of the same compound?
A: 100 [survivor count not shown] and 119 % of control [survivor count not shown]

Q: And the T/C (dose: 100.0 micrograms/kg/injection, schedule: Q04DX003 (ip), vehicle: saline)?
A: 89 [survivor count not shown] and 107 % of control [survivor count not shown]
